Experimental data: publication PMC4373128
These are yes or no findings as the source states them, for the method shown. Binding seen in cells or lysates may run through a third protein. Some entries that bind do so weakly or less than the wild type.

Chains of the proteins cited; added tags and fusions are not shown.
UniProt P33527: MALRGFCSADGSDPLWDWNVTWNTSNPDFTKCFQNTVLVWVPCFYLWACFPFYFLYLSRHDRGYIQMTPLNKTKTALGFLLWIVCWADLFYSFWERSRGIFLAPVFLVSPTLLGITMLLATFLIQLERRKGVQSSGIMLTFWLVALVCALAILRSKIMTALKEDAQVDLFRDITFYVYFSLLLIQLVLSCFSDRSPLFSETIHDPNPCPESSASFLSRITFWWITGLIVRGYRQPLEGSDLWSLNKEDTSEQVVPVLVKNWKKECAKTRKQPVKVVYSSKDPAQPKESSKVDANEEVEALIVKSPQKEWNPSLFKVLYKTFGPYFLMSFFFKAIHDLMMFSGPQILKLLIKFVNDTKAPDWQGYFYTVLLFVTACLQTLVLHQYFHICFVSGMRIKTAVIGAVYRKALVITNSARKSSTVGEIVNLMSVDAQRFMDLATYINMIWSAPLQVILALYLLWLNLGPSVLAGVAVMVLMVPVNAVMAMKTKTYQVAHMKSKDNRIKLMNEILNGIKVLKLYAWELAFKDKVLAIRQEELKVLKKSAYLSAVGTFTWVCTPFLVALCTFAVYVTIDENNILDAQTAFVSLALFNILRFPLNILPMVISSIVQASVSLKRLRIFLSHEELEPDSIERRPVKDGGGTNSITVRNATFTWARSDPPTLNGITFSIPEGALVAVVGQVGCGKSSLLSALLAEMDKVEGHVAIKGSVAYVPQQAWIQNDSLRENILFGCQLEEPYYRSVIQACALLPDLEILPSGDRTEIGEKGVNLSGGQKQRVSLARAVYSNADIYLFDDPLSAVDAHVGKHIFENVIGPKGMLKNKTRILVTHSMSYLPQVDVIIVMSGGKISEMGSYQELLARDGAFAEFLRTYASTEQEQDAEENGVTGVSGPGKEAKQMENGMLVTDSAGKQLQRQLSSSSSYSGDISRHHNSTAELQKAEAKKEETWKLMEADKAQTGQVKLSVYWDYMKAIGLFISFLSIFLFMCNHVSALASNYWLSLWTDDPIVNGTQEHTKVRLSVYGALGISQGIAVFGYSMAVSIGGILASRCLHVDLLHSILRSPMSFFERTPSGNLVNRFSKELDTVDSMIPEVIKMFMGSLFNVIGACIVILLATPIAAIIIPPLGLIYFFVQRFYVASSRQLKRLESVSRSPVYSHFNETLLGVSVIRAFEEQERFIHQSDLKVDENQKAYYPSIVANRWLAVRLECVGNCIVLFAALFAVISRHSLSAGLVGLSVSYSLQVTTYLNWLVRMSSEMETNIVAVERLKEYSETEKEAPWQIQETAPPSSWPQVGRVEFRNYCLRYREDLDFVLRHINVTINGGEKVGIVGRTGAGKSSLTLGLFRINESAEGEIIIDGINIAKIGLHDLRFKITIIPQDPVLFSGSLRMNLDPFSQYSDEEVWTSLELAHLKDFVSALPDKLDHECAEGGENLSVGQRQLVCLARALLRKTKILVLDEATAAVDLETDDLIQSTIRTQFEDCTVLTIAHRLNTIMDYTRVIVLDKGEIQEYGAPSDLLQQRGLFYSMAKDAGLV

Molecular target: T1, inwardly rectifying potassium channel Kir2.1 (KCNJ2) (human (endogenous in H69)) (UniProt P63252)
T1 sequence: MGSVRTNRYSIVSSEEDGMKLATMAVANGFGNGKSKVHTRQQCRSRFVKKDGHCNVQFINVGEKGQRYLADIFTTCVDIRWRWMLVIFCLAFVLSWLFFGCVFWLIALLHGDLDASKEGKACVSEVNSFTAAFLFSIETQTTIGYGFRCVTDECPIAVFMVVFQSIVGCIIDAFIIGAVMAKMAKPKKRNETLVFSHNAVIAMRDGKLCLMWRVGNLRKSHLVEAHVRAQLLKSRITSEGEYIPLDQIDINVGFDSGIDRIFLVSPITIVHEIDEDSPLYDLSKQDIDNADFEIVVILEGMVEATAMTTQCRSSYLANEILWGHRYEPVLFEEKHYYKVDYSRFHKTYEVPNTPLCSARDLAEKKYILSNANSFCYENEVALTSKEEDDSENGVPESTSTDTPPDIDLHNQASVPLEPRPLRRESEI
Assay: co-IP; H69 cell lysate (20 mM Tris pH 7.4, 50 mM NaCl, 1 mM EDTA, 0.5% NP-40, 0.5% SDS, 0.5% deoxycholate) precipitated with rabbit anti-Kir2.1 antibody overnight at 4°C; rabbit non-specific IgG as control; blotted with anti-ABCC1 and anti-Kir2.1

binding: binds
Substance: multidrug resistance protein 1 (MRP1/ABCC1) (from UniProt P33527 1-1531)
